At least one compound was matched to its structure with a doubt left.
Target: M. smegmatis RNA polymerase (Mycolicibacterium smegmatis, UniProt P60281)
Assay: In vitro transcription assay (single round transcription from pSAK12)
Format: biochemical
Conditions: 50 μg rifampicin; pSAK12 template; FIG. 7 lane 5

CO[C@H]1/C=C/O[C@@]2(C)Oc3c(C)c(O)c4c(O)c(c(/C=N/N5CCN(C)CC5)c(O)c4c3C2=O)NC(=O)/C(C)=C\C=C\[C@H](C)[C@H](O)[C@@H](C)[C@@H](O)[C@@H](C)[C@H](OC(C)=O)[C@@H]1C [Rifampicin]
inhibition of single round transcription (short transcript from pSAK12): rifampicin sensitive
